Experimental data reported in patent publication US3972991A, “Radioisotopic assay and binder therefor” (priority 1974, dated 1976).

Assay: competitive radioisotopic assay of folate in whole serum
Set-up: species or system human

SMILES	assay sensitivity [picograms]	effect on the assay (agent present in the serum sample)
CN1c2c(nc(N)[nH]c2=O)NCC1CNc1ccc(C(=O)N[C@@H](CCC(=O)O)C(=O)O)cc1 (some centres unmarked) [5CH3 FH4, d,1,5-methyltetrahydrofolic acid]	25	–
CN(Cc1cnc2nc(N)nc(N)c2n1)c1ccc(C(=O)N[C@@H](CCC(=O)O)C(=O)O)cc1 [Methotrexate, 4-(amino-N^10-methylpteroylglutamic acid)]	–	unaffected
